Results as given in paper PMC2614481.
No constants are given. Whether binding was seen depends on the method and setting. In cells and extracts the contact can be indirect. A yes stands for co-enrichment or nearness to the bait. Other partners may have been found.

Amino acid sequences for entries named in this document (tags omitted).
UniProt Q9C0X6: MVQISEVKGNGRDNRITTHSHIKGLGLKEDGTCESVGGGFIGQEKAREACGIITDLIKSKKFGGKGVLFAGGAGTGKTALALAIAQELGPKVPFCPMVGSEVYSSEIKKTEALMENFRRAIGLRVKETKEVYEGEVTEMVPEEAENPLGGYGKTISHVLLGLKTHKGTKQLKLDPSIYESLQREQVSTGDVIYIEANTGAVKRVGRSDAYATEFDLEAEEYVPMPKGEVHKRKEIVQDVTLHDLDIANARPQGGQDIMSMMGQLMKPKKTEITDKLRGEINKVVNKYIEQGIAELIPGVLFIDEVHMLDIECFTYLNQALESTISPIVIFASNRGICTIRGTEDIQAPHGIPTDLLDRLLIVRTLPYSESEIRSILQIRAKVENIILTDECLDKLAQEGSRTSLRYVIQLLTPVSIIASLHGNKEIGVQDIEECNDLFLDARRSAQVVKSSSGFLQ

Key:
Assay in all cases: affinity purification with mass spectrometry; TAP of baits TAP-tagged at their genes from S. pombe extracts; eluates on 6-18% gels, Coomassie, bands and slices identified by MALDI peptide mapping and LC-MS/MS; common background removed, A-index cut-off 1.75
[1] = target: RVB1 (S. pombe) (S. pombe) (UniProt Q9C0X6)
[2] = target: T1, SWC2 (S. pombe) (S. pombe) (UniProt Q9P790)
T1 sequence: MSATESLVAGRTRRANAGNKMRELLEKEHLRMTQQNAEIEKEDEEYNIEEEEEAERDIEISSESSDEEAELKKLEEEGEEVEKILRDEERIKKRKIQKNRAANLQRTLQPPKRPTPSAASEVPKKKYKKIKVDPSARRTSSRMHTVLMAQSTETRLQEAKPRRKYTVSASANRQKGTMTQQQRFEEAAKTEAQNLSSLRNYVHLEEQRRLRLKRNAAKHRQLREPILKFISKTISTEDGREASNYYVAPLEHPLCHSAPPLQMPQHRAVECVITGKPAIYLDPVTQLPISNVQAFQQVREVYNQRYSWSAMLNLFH

[3] = target: T2, SWC4 (S. pombe) (S. pombe) (UniProt O14308)
T2 sequence: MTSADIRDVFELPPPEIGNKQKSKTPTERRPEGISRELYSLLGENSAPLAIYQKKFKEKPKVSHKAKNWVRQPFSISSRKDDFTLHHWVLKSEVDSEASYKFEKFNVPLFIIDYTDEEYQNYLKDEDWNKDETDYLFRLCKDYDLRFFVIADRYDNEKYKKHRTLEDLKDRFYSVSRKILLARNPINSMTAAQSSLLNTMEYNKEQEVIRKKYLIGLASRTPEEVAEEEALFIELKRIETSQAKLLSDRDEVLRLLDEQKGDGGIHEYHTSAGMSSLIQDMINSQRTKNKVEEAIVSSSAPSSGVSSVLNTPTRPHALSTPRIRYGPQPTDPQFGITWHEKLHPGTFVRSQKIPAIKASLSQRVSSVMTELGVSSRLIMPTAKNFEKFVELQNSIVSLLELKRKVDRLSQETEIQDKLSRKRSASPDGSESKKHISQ

[4] = target: T3, YAF9 (S. pombe) (S. pombe) (UniProt Q10319)
T3 sequence: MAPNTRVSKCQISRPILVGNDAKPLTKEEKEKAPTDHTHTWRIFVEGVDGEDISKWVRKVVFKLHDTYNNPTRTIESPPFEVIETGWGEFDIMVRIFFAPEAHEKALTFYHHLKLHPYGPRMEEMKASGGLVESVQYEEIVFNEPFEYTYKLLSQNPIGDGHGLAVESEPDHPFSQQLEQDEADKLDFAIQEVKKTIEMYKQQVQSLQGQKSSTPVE

[5] = target: T4, IES6 (S. pombe) (S. pombe) (UniProt Q9UTE8)
T4 sequence: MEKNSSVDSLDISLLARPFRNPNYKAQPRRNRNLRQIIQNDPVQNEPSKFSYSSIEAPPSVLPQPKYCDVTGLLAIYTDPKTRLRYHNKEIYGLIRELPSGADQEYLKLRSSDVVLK

Measured: binding

B1: SWR1 (S. pombe) (protein, UniProt O13682 1-1288)
chain: MTYEESEKNKNGLSSYIKKEGSSDLKVRVRFREPKLLVTHSGHITEQPKYEHLEQYLDSYVSLEDGDHDPKEAKELVFREVQLRHRINEFRKKGYFTAEAPVELKKAPSSNNIPISYRDNLLSHVNGYARSMHNDRKVRASRSRRISGMILAHFKRLSGADEKKAKEEDKRIRLLAKRTAWEIRKKWKVIEREVRRRRAERAAEAQRVAGKEQLANILKHSTDLLEARIERANINISAQTSESAVDWNYLLKTSDDLLSVDELKLKYSNPDLIKNIEREEEAEETSDDEPLSSEDEENEDEDITEESNLRKRKVSDKTRVVNKHPPSLRRSRRFFAKKSYNHVSDLDGEVIVMKKEDITDGVSTKKDLNDGDQNEVPLHDTGSSSSLSLLYNEDVASKKKRRVNDDGLARKKSIAGISEQRKFDEPNGSPVLHANKIQVPFLFRGTLREYQQYGLEWLTALHDSNTNGILADEMGLGKTIQTIALLAHLACEKENWGPHLIIVPTSVMLNWEMEFKKFLPGFKILTYYGNPQERKEKRSGWYKPDTWHVCITSYQLVLQDHQPFRRKKWQYMILDEAHNIKNFRSQRWQSLLNFNAEHRLLLTGTPLQNNLVELWSLLYFLMPAGVTQNNSAFANLKDFQDWFSKPMDRLIEEGQDMNPEAMNTVAKLHRVLRPYLLRRLKTEVEKQMPAKYEHVVYCQLSKRQRFLYDDFINRARTREILASGNFMSIINCLMQLRKVCNHPNLHEERPIVTSFALRRSAIADLEIKDLLVRKRLLHEEPMTKLDLSTLRLIRTDSEAFDTFVSDELNSLCATNAYNRISTFLRMQIDEECKPCQFKKSNFKEHFQNKIYQEQLDKLNFQKYLNESKCSHSPIYGSNLIRLAEKLPKHSTSIDYTLYAKDDPLYLLNTTKALRSCILSTEERASNMKEIIQRFACITPKAVVVDLPELFCKTIPRDLLYEVSRKINPLHQASTRLAIAFPDKRLLQYDCGKLQVLDRLLKDLVSNGHRVLIFTQMTKVLDILEQFLNIHGHRYLRLDGATKIEQRQILTERFNNDDKIPVFILSTRSGGLGINLTGADTVIFYDSDWNPQLDAQAQDRSHRIGQTRDVHIYRLISEYTVESNMLRRANQKRMLDKIVIQGGEFTTEWFRKADVLDLFDLDDESLKKVKADSDSGSTKNEENWEVALAAAEDEEDVQAAQVARKESALEQTEFSETSTPQAMLTKDSTPLSSDSATPGFERDSTEEQSNTNDMDEDRSELEEDLDETVGHIDEYMISFLEQEGTSDEW
binds: [1] | [2] | [3] | [4]

B2: BDF1 (S. pombe) (protein, UniProt Q9Y7N0 1-578)
chain: MSSESRENEVKAETKDEIANDGSPQLNGDNNIQSSDGHNDENEESLSRKRDSSGATVGDLKQEEKESMPKKEPEPTVKKIRGSGMPPPQQKYCLAIVRQLKRTKNSAPFKVPVDPIKQNIPDYPTIVKNPMDLGTIEKKLTSYEYSVPQEFIDDMNLMFSNCFLYNGTESPVGSMGKALQEVFERQLKQLPDAEQPAAAPVKKSKQKSASTAPPRTRRNSSVSSTSASVAASTAPKAASPAVLPEGKPRRRKNNSQMRFCSTVLKELYKRQYESFAFPFYQPVDPVACDCPDYFDVIKEPMDLSTIQSKLNKNEYSTLEEFESDILLMFNNCFTYNPPGTPVHVMGRQLENVFKEKWEARPKFDDATLVKQQEAETDALFDNGEEEEALMSEEEINGAKFAAVDKQISMLQDTLEAMKAKKMNRMRKPRRRDLTKEYGPITYAMQNELAERCNYLSAEQLSNVAEILREEMPWLRDTDEIEIDVGNMKPEVFHRIYRYVCKPDADSSEPASPVLMPTKPEKKKGRVLSETEQAEKIRRLQQQLDRFAGKTSPTSPESNNAANVSDSESDNESESSESA
binds: [1] | [2] | [3] | [4]

B3: ARP6 (S. pombe) (protein, UniProt O94241 1-401)
chain: MGLPPKTIVLDNGAYHIKAGFAGGKVVEIPNCLTRSKDGNRLFLGNELANCNDFTTLQFRRAHEKGYLVHWSTETAVWDLVMRNVGVMEPSMADYSLLLTQPVFTMPSIEHNTIQLVFEEFQFDAYLPCTPAELIPWDHGSFTMNQEDAYTGQHGECVLVIDSGYSFTHIIPVIDFSVQEQAVKRVDVGGKLLTNYLKEVISYRKYNMMEETYIVNEIKESVCYVSQNFKEDMEICHEKPRSKLEICYALPDYSTGKHGYIVRDINQKIEQQVLNLSNERFMIPELLFSPSDIEIREAGIPEAVMQSVTHFPENIQAMLLENVVTIGGNCKFPGFHKRLSSELRSLAPANWEVKVFEPSDPICFPWKKASHMPLEHWNANKITRSEYSEHGANIMTRKRRI
binds: [2] | [3] | [4]

B4: VPS71 (S. pombe) (protein, UniProt O59669 1-139)
chain: MFVTPIEHAVQKRKKQKQRSVVDPVTRERQLKRNLADLEKDNFSDIRFEIPKDLLQRRVLPISVRRILSSRKTFVNYLDETPNSRYNTCVAKPSYKPPRKFCNVCGYWGKYACQNCGTSYCSKGCEVIHSETRCMKVYA
binds: [1] | [2] | [3] | [4]

B5: SWC3 (S. pombe) (protein, UniProt Q10210 1-391)
chain: MSLNGTFSHNNGLPSGEREESETPGGSTSIISSSFLLQPRASDSRPDALEGKYDKNVLARALKKSRDSCLNGALFEKFLPEENYKLSGGTVFSHVRYIDTATLCVGPLRFEDTKFYFVHYSNSPIEPFAKPNISYVNPQWNELDYRPDSQKLSPGKEKNTLDLKHCLLPSPEYKAPPAKKPEDYEASPGEPVEPLITDASLQRLKSRANEDPTIFNILKRISKGLGTPEQCMLLHNELIGPSTFPLPKRAKKPPRKRITLSINQQDKDEFFDSLINNKKEVRRHFDIVMEFSDAPDTKWIFPRESVLSHVFNTDKKKLEALSLLFHVYRPTEDRNVIDVKTEIKIRDFTPTLRSAIELLTSGTHADRLLSEKRRRMSNLEPKYYMQFHEQT
binds: [1] | [2] | [3] | [4]

B6: IEC1 (S. pombe) (protein, UniProt Q9UTM0 1-249)
chain: MSISSDTSGSVPGSPIDLEPESETICHWQSCEQDLLTLDNLVHHIHNGTTSNLRLISNINSILDHIGNRRPKYTCEWDDCPRKGMVQTSRFALVAHLRSHTGEKPFICSVPECDRSFTRSDALAKHMRTVHEADTLRPSDPIPKAHPMHPQNVANAMVQSAREARAQQQMHGVGNTNEDVENWLDAASMPKTSHDMYRLQKRKLQWVKEERTMLANHLEALERKLIDARNRKEKILNEIVKQVDPSISR
binds: [5] | [1]

B7: IEC3 (S. pombe) (protein, UniProt O94704 1-168)
chain: MASVKSFKRKYLKLRKSFDSVVLETEEIEQKIAEISEVYRRILLENAHLNDLLIDMNSTVLPTPPASPPGSPYWEAKPVSHTVFLESPSDVFTLEKPIASTHRWLSKLTALSKSTNSTLSTPKSFHSPLQSRGISPSSAQSSAAVSSSRKQKRKRTSEGPSERRARKK
binds: [5] | [1]

B8: IEC5 (Ino Eighty Complex subunit 5, S. pombe) (protein, UniProt B8Y7Y5 1-144)
chain: MAAQKKQGERVLPARSTRKRRQLPDMLYYDERTDSYVTPQERSLSEANAQTRPAPNTINQAVDAKQSAREARVQELMKSKLYHLRKQQKQARHKRDQWAIDYLEWKKNEDEDVWNSDAEATGPAEHTSSFLDALRFSQQFMKAE
binds: [5] | [1]
